For 13 molecules, binding results are on record in PMC6713327.

By UniProt entry, the sequences of proteins in these tests, tags left out.
UniProt P51532: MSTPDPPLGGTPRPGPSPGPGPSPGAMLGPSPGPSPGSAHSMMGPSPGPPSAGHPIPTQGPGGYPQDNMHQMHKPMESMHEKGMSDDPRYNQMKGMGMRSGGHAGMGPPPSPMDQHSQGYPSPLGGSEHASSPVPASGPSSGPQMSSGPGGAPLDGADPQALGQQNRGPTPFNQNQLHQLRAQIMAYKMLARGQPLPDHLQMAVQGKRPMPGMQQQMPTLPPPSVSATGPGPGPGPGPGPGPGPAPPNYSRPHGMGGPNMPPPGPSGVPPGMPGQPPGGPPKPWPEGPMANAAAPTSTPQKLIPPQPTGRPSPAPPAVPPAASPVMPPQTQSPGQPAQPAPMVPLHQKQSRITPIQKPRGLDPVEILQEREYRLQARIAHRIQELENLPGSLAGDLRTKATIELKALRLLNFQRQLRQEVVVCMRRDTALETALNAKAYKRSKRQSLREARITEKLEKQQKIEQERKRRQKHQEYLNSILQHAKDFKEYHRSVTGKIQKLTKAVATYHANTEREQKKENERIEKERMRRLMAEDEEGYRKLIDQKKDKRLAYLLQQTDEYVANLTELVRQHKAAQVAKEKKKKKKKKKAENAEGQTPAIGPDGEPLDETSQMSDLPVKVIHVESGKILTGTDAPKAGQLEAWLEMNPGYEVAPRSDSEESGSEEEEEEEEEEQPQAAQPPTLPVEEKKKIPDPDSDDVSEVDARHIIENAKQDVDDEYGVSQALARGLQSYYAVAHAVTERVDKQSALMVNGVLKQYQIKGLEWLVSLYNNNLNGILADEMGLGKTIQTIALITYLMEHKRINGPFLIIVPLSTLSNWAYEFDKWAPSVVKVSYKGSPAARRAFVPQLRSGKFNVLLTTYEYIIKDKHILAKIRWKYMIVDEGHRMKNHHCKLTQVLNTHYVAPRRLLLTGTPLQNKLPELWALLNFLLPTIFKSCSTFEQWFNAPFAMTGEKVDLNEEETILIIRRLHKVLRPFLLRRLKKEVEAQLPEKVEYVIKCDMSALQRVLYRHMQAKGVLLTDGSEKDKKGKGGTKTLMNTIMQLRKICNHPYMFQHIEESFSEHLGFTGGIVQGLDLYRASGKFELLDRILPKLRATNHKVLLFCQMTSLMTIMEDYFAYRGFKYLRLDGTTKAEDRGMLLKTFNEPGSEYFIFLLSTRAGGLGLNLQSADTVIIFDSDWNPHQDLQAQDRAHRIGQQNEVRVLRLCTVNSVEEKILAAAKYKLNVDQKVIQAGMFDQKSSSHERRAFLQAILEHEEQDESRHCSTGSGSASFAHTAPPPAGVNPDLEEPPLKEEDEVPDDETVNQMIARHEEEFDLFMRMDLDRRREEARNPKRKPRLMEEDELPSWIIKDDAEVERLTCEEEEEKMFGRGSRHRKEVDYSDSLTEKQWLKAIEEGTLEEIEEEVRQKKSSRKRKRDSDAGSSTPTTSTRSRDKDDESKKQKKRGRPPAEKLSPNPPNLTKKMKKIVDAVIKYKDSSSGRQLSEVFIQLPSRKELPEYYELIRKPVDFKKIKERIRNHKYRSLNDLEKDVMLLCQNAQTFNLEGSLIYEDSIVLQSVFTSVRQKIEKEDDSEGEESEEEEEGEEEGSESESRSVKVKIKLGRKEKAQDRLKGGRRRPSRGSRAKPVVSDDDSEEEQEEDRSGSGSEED
UniProt Q8TAQ2: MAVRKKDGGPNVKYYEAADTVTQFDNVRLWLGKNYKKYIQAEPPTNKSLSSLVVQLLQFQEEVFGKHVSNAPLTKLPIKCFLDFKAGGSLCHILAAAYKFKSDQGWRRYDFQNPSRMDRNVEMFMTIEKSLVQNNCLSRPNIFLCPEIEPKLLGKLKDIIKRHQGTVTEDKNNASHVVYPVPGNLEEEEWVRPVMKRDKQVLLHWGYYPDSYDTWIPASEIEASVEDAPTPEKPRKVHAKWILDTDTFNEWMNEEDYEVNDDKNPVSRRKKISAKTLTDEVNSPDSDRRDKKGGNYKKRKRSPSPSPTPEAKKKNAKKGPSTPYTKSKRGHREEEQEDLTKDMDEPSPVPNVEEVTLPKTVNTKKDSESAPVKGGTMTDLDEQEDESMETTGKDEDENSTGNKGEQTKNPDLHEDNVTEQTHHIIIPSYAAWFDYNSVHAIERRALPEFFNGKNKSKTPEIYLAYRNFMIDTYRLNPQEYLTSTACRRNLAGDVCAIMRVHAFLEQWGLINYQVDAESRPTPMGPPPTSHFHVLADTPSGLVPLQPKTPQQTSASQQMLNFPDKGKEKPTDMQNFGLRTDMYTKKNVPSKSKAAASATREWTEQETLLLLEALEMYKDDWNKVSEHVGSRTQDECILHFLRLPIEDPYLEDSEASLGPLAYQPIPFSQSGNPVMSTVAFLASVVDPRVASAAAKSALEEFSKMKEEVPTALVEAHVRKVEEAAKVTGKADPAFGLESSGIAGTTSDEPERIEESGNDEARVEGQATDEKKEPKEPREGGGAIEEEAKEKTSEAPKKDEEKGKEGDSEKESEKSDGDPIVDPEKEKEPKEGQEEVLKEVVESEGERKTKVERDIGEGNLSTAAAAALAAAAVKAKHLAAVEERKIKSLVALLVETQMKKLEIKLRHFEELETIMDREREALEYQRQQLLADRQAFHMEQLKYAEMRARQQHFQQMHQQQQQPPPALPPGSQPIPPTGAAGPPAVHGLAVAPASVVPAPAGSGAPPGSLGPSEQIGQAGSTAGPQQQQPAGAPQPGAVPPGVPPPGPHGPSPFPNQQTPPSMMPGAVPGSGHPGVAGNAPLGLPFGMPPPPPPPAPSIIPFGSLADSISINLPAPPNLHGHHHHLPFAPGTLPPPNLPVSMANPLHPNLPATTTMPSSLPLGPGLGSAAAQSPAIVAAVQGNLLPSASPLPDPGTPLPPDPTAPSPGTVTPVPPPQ
UniProt P07814: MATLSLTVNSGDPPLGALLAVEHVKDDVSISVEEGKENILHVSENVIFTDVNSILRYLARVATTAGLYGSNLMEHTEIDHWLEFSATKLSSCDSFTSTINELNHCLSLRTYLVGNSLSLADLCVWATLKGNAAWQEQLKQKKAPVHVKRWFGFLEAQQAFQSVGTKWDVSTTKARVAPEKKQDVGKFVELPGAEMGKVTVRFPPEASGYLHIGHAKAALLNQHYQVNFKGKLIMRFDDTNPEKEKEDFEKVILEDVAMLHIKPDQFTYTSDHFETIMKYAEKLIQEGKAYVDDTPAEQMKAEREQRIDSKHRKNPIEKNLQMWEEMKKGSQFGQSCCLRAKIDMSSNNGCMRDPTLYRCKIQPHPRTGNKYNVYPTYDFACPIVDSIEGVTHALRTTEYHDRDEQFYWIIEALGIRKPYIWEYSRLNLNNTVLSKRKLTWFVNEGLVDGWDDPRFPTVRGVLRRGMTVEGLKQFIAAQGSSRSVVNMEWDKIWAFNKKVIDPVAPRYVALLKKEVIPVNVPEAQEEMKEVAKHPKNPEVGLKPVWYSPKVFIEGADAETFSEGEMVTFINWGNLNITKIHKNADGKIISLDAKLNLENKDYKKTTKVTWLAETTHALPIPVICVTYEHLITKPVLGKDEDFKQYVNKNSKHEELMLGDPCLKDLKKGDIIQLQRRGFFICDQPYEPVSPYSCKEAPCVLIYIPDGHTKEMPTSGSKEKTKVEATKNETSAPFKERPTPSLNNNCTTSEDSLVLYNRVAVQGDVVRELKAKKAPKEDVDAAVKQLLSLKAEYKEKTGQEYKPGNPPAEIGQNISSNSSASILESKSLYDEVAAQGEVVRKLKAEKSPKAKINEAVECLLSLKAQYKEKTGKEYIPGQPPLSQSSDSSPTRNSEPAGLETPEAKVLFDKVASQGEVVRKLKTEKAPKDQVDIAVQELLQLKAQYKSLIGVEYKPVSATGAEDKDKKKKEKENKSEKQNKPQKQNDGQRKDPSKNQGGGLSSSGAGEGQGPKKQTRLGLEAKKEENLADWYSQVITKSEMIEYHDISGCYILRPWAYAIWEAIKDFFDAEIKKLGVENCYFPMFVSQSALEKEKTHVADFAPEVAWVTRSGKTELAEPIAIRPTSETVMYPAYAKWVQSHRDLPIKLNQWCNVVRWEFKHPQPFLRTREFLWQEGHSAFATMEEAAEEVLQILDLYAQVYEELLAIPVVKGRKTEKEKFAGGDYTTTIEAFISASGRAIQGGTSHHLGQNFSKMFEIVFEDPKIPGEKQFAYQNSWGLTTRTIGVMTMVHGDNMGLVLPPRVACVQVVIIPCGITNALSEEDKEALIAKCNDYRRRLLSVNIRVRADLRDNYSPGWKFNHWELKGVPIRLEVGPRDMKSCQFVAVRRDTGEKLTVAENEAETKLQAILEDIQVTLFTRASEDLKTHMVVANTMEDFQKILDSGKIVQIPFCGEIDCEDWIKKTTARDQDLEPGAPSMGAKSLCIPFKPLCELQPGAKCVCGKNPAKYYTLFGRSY
UniProt Q2TAZ0: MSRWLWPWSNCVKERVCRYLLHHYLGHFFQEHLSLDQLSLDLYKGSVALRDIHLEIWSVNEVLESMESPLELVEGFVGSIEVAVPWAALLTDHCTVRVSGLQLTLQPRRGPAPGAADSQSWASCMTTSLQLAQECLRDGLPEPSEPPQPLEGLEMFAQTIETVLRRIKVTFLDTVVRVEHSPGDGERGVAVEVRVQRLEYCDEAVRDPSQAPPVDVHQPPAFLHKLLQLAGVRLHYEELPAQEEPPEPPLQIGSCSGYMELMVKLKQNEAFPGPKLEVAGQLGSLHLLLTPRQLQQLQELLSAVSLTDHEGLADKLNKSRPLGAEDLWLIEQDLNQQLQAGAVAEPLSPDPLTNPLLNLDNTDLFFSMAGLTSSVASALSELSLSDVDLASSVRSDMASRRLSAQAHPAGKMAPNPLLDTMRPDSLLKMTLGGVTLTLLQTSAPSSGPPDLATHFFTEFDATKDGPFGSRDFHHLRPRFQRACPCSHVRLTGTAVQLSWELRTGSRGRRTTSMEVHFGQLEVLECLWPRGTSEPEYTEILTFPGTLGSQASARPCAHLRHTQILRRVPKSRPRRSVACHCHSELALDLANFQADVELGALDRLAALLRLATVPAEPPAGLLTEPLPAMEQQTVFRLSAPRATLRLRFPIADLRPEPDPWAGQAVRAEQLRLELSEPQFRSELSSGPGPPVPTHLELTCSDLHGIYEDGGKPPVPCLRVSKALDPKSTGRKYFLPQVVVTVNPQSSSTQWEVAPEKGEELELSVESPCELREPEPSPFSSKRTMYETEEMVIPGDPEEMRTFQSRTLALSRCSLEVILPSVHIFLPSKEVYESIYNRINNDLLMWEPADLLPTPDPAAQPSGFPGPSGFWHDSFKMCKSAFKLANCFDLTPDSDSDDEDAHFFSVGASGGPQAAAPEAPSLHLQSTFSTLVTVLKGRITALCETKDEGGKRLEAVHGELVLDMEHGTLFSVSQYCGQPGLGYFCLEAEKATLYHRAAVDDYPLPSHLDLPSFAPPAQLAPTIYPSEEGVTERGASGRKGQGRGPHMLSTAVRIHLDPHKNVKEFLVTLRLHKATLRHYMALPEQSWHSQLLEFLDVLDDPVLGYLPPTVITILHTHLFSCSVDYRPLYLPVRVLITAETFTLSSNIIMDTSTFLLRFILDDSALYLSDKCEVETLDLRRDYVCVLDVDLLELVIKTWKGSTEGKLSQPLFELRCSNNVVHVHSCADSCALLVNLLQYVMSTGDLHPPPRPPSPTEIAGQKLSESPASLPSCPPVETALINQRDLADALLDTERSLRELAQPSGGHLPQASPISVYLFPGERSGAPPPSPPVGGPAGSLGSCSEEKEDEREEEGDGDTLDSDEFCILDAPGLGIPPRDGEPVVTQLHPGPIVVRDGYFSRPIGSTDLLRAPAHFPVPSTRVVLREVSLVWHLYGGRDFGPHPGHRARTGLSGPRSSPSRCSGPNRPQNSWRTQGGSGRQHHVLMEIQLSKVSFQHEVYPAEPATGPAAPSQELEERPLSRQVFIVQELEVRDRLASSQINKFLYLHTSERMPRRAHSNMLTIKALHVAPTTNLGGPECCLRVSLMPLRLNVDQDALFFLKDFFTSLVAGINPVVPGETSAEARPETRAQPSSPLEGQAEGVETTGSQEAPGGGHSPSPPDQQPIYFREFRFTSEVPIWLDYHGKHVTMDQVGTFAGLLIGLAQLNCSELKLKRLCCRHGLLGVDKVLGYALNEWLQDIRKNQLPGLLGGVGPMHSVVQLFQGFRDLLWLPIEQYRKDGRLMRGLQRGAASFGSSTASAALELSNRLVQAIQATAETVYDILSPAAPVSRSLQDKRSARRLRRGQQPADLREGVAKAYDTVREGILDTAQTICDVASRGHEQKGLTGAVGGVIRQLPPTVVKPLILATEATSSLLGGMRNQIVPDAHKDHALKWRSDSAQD

The target of the assay is T1, FANCA (human (endogenous in 293FT and EndoC-βH3)) (UniProt O15360).
T1 sequence: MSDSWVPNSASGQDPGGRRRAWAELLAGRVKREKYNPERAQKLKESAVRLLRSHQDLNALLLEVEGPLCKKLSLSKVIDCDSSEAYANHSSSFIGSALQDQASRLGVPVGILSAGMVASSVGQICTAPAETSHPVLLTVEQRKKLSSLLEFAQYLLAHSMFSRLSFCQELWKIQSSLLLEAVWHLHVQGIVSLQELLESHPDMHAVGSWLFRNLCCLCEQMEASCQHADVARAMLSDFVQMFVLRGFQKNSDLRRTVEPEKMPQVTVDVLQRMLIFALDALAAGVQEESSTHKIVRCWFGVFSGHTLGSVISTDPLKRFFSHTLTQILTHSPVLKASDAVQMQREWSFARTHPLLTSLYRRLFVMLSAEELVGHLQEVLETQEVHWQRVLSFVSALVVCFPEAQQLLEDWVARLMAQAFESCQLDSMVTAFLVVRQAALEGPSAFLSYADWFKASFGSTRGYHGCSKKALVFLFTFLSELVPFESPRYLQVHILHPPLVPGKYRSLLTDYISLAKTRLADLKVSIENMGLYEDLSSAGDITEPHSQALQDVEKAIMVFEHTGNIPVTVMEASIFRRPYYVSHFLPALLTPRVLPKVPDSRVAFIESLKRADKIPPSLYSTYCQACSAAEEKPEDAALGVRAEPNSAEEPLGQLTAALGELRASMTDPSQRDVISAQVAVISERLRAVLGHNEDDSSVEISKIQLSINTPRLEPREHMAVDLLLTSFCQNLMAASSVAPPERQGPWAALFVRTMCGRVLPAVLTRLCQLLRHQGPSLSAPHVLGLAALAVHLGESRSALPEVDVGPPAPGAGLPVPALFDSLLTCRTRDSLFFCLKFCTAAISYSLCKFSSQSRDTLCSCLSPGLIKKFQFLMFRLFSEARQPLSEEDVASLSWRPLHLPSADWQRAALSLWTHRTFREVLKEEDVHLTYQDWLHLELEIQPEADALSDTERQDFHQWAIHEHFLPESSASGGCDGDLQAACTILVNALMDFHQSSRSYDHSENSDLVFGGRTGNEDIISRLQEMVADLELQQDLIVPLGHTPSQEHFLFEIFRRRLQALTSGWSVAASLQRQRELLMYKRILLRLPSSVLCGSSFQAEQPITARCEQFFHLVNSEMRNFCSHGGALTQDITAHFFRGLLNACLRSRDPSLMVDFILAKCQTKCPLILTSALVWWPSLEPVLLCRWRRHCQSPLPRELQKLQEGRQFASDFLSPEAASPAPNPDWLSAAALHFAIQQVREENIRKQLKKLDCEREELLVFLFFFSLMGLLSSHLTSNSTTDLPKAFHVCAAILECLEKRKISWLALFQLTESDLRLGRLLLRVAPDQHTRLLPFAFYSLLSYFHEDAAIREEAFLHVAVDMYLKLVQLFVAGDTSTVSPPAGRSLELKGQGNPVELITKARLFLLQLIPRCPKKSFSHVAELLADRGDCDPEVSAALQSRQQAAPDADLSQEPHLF
Put plainly: affinity purification with mass spectrometry; endogenous FANCA precipitated from lysate of EndoC-βH3 cells cultured in 5 mM or 20 mM glucose, anti-FANCA antibody coupled to Dynabeads, 2 h at 4°C; LC-MS/MS, SAINT (BFDR ≤ 0.05, SAINT score = 1.0); biological duplicates.

These are yes or no findings as the source states them, for the method shown. Binding seen in cells or lysates may run through a third protein. These calls come from enrichment with a bait or labelling near it, and not all partners need be listed.

Take SMARCA2 (from UniProt P51531 1-1590): the binding entry is listed as “binds”.

For FANCD1 (from UniProt P51587 1-3418), the binding result is recorded as “binds”.

In the case of “Phosphatidylinositol 4-phosphate 3-kinase C2 domain-containing subunit alpha (from UniProt O00443 1-1686)”, the binding result is listed as “binds”.

For the molecule SMARCA4 (from UniProt P51532 1-1647), the binding result is “binds”.

For SMARCC2 (from UniProt Q8TAQ2 1-1214), the binding result is given as “binds”.

In the case of EPRS (from UniProt P07814 1-1512), the binding result is recorded as “binds”.

Take MIA3 (from UniProt Q5JRA6 23-1907): the binding result was “binds”.

ATG2A (from UniProt Q2TAZ0 1-1938): the binding result is listed as “binds”.

B1: GARS (protein, UniProt P41250 37-739)
chain: SAASCPPISLPAAASRSSMDGAGAEEVLAPLRLAVRQQGDLVRKLKEDKAPQVDVDKAVAELKARKRVLEAKELALQPKDDIVDRAKMEDTLKRRFFYDQAFAIYGGVSGLYDFGPVGCALKNNIIQTWRQHFIQEEQILEIDCTMLTPEPVLKTSGHVDKFADFMVKDVKNGECFRADHLLKAHLQKLMSDKKCSVEKKSEMESVLAQLDNYGQQELADLFVNYNVKSPITGNDLSPPVSFNLMFKTFIGPGGNMPGYLRPETAQGIFLNFKRLLEFNQGKLPFAAAQIGNSFRNEISPRSGLIRVREFTMAEIEHFVDPSEKDHPKFQNVADLHLYLYSAKAQVSGQSARKMRLGDAVEQGVINNTVLGYFIGRIYLYLTKVGISPDKLRFRQHMENEMAHYACDCWDAESKTSYGWIEIVGCADRSCYDLSCHARATKVPLVAEKPLKEPKTVNVVQFEPSKGAIGKAYKKDAKLVMEYLAICDECYITEMEMLLNEKGEFTIETEGKTFQLTKDMINVKRFQKTLYVEEVVPNVIEPSFGLGRIMYTVFEHTFHVREGDEQRTFFSFPAVVAPFKCSVLPLSQNQEFMPFVKELSEALTRHGVSHKVDDSSGSIGRRYARTDEIGVAFGVTIDFDTVNKTPHTATLRDRDSMRQIRAEISELPSIVQDLANGNITWADVEARYPLFEGQETGKKETIEE
Regarding B1, the binding entry is “binds”.

B2: MARS (protein, UniProt P56192 1-900)
chain: MRLFVSDGVPGCLPVLAAAGRARGRAEVLISTVGPEDCVVPFLTRPKVPVLQLDSGNYLFSTSAICRYFFLLSGWEQDDLTNQWLEWEATELQPALSAALYYLVVQGKKGEDVLGSVRRALTHIDHSLSRQNCPFLAGETESLADIVLWGALYPLLQDPAYLPEELSALHSWFQTLSTQEPCQRAAETVLKQQGVLALRPYLQKQPQPSPAEGRAVTNEPEEEELATLSEEEIAMAVTAWEKGLESLPPLRPQQNPVLPVAGERNVLITSALPYVNNVPHLGNIIGCVLSADVFARYSRLRQWNTLYLCGTDEYGTATETKALEEGLTPQEICDKYHIIHADIYRWFNISFDIFGRTTTPQQTKITQDIFQQLLKRGFVLQDTVEQLRCEHCARFLADRFVEGVCPFCGYEEARGDQCDKCGKLINAVELKKPQCKVCRSCPVVQSSQHLFLDLPKLEKRLEEWLGRTLPGSDWTPNAQFITRSWLRDGLKPRCITRDLKWGTPVPLEGFEDKVFYVWFDATIGYLSITANYTDQWERWWKNPEQVDLYQFMAKDNVPFHSLVFPCSALGAEDNYTLVSHLIATEYLNYEDGKFSKSRGVGVFGDMAQDTGIPADIWRFYLLYIRPEGQDSAFSWTDLLLKNNSELLNNLGNFINRAGMFVSKFFGGYVPEMVLTPDDQRLLAHVTLELQHYHQLLEKVRIRDALRSILTISRHGNQYIQVNEPWKRIKGSEADRQRAGTVTGLAVNIAALLSVMLQPYMPTVSATIQAQLQLPPPACSILLTNFLCTLPAGHQIGTVSPLFQKLENDQIESLRQRFGGGQAKTSPKPAVVETVTTAKPQQIQALMDEVTKQGNIVRELKAQKADKNEVAAEVAKLLDLKKQLAVAEGKPPEAPKGKKKK
As to B2, the binding entry is listed as “binds”.

B3: MIA2 (protein, UniProt Q96PC5 20-1412)
chain: LESTKLLADLKKCGDLECEALINRVSAMRDYRGPDCRYLNFTKGEEISVYVKLAGEREDLWAGSKGKEFGYFPRDAVQIEEVFISEEIQMSTKESDFLCLLGVSYTFDNEDSELNGDYGENIYPYEEDKDEKSSIYESDFQIEPGFYATYESTLFEDQVPALEAPEDIGSTSESKDWEEVVVESMEQDRIPEVHVPPSSAVSGVKEWFGLGGEQAEEKAFESVIEPVQESSFRSRKIAVEDENDLEELNNGEPQTEHQQESESEIDSVPKTQSELASESEHIPKPQSTGWFGGGFTSYLGFGDEDTGLELIAEESNPPLQDFPNSISSDKEATVPCTEILTEKKDTITNDSLSLKPSWFDFGFAILGFAYAKEDKIMLDDRKNEEDGGADEHEHPLTSELDPEKEQEIETIKIIETEDQIDKKPVSEKTDESDTIPYLKKFLYNFDNPWNFQNIPKETELPFPKQILDQNNVIENEETGEFSIDNYPTDNTKVMIFKSSYSLSDMVSNIELPTRIHEEVYFEPSSSKDSDENSKPSVDTEGPALVEIDRSVENTLLNSQMVSTDNSLSSQNYISQKEDASEFQILKYLFQIDVYDFMNSAFSPIVILTERVVAALPEGMRPDSNLYGFPWELVICAAVVGFFAVLFFLWRSFRSVRSRLYVGREKKLALMLSGLIEEKSKLLEKFSLVQKEYEGYEVESSLKDASFEKEATEAQSLEATCEKLNRSNSELEDEILCLEKELKEEKSKHSEQDELMADISKRIQSLEDESKSLKSQVAEAKMTFKIFQMNEERLKIAIKDALNENSQLQESQKQLLQEAEVWKEQVSELNKQKVTFEDSKVHAEQVLNDKESHIKTLTERLLKMKDWAAMLGEDITDDDNLELEMNSESENGAYLDNPPKGALKKLIHAAKLNASLKTLEGERNQIYIQLSEVDKTKEELTEHIKNLQTEQASLQSENTHFENENQKLQQKLKVMTELYQENEMKLHRKLTVEENYRLEKEEKLSKVDEKISHATEELETYRKRAKDLEEELERTIHSYQGQIISHEKKAHDNWLAARNAERNLNDLRKENAHNRQKLTETELKFELLEKDPYALDVPNTAFGREHSPYGPSPLGWPSSETRAFLSPPTLLEGPLRLSPLLPGGGGRGSRGPGNPLDHQITNERGESSCDRLTDPHRAPSDTGSLSPPWDQDRRMMFPPPGQSYPDSALPPQRQDRFCSNSGRLSGPAELRSFNMPSLDKMDGSMPSEMESSRNDTKDDLGNLNVPDSSLPAENEATGPGFVPPPLAPIRGPLFPVDARGPFLRRGPPFPPPPPGAMFGASRDYFPPGDFPGPPPAPFAMRNVYPPRGFPPYLPPRPGFFPPPPHSEGRSEFPSGLIPPSNEPATEHPEPQQET
With B3, the binding result is on record as “binds”.

B4: WARS (protein, UniProt P23381 1-471)
chain: MPNSEPASLLELFNSIATQGELVRSLKAGNASKDEIDSAVKMLVSLKMSYKAAAGEDYKADCPPGNPAPTSNHGPDATEAEEDFVDPWTVQTSSAKGIDYDKLIVRFGSSKIDKELINRIERATGQRPHHFLRRGIFFSHRDMNQVLDAYENKKPFYLYTGRGPSSEAMHVGHLIPFIFTKWLQDVFNVPLVIQMTDDEKYLWKDLTLDQAYSYAVENAKDIIACGFDINKTFIFSDLDYMGMSSGFYKNVVKIQKHVTFNQVKGIFGFTDSDCIGKISFPAIQAAPSFSNSFPQIFRDRTDIQCLIPCAIDQDPYFRMTRDVAPRIGYPKPALLHSTFFPALQGAQTKMSASDPNSSIFLTDTAKQIKTKVNKHAFSGGRDTIEEHRQFGGNCDVDVSFMYLTFFLEDDDKLEQIRKDYTSGAMLTGELKKALIEVLQPLIAEHQARRKEVTDEIVKEFMTPRKLSFDFQ
Regarding B4, the binding result is on record as “binds”.

B5: RARS (protein, UniProt P54136 1-660)
chain: MDVLVSECSARLLQQEEEIKSLTAEIDRLKNCGCLGASPNLEQLQEENLKLKYRLNILRKSLQAERNKPTKNMINIISRLQEVFGHAIKAAYPDLENPPLLVTPSQQAKFGDYQCNSAMGISQMLKTKEQKVNPREIAENITKHLPDNECIEKVEIAGPGFINVHLRKDFVSEQLTSLLVNGVQLPALGENKKVIVDFSSPNIAKEMHVGHLRSTIIGESISRLFEFAGYDVLRLNHVGDWGTQFGMLIAHLQDKFPDYLTVSPPIGDLQVFYKESKKRFDTEEEFKKRAYQCVVLLQGKNPDITKAWKLICDVSRQELNKIYDALDVSLIERGESFYQDRMNDIVKEFEDRGFVQVDDGRKIVFVPGCSIPLTIVKSDGGYTYDTSDLAAIKQRLFEEKADMIIYVVDNGQSVHFQTIFAAAQMIGWYDPKVTRVFHAGFGVVLGEDKKKFKTRSGETVRLMDLLGEGLKRSMDKLKEKERDKVLTAEELNAAQTSVAYGCIKYADLSHNRLNDYIFSFDKMLDDRGNTAAYLLYAFTRIRSIARLANIDEEMLQKAARETKILLDHEKEWKLGRCILRFPEILQKILDDLFLHTLCDYIYELATAFTEFYDSCYCVEKDRQTGKILKVNMWRMLLCEAVAAVMAKGFDILGIKPVQRM
B5: the binding result is given as “binds”.
